From publication PMC7477090 come the findings set out here.

The chains behind the UniProt entries cited, without tags or fusion partners. Where a name states a change or a piece, a line headed by the entry shows the natural chain unless it says otherwise.
UniProt P19492: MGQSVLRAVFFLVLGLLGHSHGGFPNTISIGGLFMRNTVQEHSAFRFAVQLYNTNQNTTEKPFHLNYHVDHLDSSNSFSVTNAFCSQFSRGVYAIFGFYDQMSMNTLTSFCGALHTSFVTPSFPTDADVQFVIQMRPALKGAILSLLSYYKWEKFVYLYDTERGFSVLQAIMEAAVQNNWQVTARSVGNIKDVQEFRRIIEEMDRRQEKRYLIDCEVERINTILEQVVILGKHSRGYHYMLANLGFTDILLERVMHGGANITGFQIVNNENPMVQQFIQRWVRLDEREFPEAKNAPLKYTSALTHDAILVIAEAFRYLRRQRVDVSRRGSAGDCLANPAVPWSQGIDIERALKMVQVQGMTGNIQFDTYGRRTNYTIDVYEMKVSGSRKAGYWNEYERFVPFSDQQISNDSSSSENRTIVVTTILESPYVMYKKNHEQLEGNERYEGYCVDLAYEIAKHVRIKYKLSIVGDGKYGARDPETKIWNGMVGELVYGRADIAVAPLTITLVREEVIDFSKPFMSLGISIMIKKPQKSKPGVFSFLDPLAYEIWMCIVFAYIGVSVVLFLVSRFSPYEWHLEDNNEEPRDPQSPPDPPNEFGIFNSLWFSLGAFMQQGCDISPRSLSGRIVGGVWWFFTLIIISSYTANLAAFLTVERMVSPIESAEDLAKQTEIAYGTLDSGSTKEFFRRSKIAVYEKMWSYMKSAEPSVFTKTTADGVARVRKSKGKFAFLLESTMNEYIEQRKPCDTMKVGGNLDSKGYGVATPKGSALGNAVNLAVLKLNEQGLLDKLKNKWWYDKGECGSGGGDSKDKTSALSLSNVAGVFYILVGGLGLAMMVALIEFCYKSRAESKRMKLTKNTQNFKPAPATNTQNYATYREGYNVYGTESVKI
UniProt P19490: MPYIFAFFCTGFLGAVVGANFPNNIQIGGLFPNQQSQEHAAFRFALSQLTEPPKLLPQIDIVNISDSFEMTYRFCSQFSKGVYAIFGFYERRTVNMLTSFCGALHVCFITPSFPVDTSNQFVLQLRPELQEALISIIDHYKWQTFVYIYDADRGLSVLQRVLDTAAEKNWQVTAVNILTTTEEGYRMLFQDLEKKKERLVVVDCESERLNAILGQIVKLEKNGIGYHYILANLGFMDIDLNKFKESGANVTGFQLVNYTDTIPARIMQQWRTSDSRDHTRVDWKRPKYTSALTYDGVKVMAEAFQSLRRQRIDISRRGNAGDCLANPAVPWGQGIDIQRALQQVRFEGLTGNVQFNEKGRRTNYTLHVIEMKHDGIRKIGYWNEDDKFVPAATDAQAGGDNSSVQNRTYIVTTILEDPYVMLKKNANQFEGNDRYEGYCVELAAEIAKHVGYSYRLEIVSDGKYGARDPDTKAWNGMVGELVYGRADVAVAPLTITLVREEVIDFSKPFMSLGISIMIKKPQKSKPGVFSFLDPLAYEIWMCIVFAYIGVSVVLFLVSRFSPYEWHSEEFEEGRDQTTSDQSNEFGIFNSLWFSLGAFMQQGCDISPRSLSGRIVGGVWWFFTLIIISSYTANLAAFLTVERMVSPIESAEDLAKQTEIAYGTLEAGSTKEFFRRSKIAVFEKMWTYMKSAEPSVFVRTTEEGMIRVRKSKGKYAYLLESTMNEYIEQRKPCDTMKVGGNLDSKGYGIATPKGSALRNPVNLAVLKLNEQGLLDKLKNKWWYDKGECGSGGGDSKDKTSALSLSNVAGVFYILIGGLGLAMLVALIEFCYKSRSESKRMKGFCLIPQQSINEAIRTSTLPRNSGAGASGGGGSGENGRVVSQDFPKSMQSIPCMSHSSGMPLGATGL
UniProt P19491: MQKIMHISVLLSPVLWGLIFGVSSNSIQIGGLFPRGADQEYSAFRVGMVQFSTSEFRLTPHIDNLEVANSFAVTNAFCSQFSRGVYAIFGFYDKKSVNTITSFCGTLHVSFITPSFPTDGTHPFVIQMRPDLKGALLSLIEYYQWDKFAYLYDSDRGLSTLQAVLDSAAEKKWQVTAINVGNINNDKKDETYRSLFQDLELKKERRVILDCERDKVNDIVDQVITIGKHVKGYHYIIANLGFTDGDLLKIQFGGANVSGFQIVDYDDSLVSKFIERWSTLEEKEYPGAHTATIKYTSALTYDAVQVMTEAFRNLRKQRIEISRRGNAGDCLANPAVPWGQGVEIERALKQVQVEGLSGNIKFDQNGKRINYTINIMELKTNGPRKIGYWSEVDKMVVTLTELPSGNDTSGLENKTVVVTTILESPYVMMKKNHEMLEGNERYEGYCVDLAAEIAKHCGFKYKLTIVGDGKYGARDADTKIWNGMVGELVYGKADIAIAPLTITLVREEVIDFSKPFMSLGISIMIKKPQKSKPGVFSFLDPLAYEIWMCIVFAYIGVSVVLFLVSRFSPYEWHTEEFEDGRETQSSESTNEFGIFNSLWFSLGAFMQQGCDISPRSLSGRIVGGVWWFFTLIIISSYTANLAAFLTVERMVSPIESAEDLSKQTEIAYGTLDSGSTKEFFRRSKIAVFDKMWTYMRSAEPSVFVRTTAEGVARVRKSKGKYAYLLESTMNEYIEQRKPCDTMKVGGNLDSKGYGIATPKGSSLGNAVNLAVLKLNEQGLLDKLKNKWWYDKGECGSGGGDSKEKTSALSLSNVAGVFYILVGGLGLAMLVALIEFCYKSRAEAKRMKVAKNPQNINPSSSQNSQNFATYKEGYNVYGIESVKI

These are yes or no findings as the source states them, for the method shown. Binding seen in cells or lysates may run through a third protein. Binding calls can cover weak binding; strength is not graded here. Tags and fused reporters may be left off the sequences shown.

For the assay, the target named is T1, myc-tagged porcupine O-acyltransferase (PORCN) (UniProt Q9JJJ7).
T1 sequence: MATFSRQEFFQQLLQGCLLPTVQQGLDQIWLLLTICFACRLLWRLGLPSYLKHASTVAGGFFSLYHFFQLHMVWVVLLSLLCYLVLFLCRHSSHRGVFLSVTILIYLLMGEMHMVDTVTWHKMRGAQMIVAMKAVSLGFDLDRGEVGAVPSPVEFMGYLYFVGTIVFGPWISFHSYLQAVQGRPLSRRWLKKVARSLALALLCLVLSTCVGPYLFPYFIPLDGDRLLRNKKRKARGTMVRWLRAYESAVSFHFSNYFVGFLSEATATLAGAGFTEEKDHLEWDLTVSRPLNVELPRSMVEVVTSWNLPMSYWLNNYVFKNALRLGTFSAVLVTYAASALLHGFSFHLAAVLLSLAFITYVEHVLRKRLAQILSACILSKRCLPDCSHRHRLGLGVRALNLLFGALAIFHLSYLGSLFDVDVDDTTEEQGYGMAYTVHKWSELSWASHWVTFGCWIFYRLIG
In words: co-IP; HEK293T cells co-transfected with a GluA construct and myc-PORCN; lysis in 50 mM Tris-HCl, 1 mM EDTA, 150 mM NaCl, 1% CA-630; anti-myc magnetic beads, 12 h at 4°C, four washes; GluA detected by immunoblot.

For “GluA3-ΔMPR (from UniProt P19492) (receptor)”, the binding result is on record as “binds”.

In the case of “GluA1-ΔATD (from UniProt P19490) (receptor)”, the binding entry is listed as “binds”.

In the case of “GluA2-ΔC (from UniProt P19491) (receptor)”, the binding entry is “binds”.

On to “GluA3-Δ824 (from UniProt P19492) (receptor)”, for which the binding entry is “binds”.

Take “GluA2-Δ824 (from UniProt P19491) (receptor)”: the binding result was “binds”.

On to “GluA1-ΔC (from UniProt P19490) (receptor)”, for which the binding entry is “binds”.

In the case of “GluA2-ΔATD (from UniProt P19491) (receptor)”, the binding result is recorded as “binds”.

As to “GluA1-Δ824 (from UniProt P19490) (receptor)”, the binding result is “binds”.

As for “GluA3-ΔATD (from UniProt P19492) (receptor)”, the binding entry is recorded as “binds”.
